Results: article PMC6408450
No constants are given. Whether binding was seen depends on the method and setting. Binding seen in cells or lysates may run through a third protein. A yes stands for co-enrichment or nearness to the bait. Other partners may have been found.

B1: MPZ (protein, UniProt P27573 30-248)
chain: IVVYTDREIYGAVGSQVTLHCSFWSSEWVSDDISFTWRYQPEGGRDAISIFHYAKGQPYIDEVGAFKERIQWVGDPRWKDGSIVIHNLDYSDNGTFTCDVKNPPDIVGKTSQVTLYVFEKVPTRYGVVLGAVIGGILGVVLLLLLLFYLIRYCWLRRQAALQRRLSAMEKGRFHKSSKDSSKRGRQTPVLYAMLDHSRSTKAASEKKSKGLGESRKDKK
B2: SERPINH1 (protein, UniProt P19324 18-417)
chain: AEVKKPLEAAAPGTAEKLSSKATTLAERSTGLAFSLYQAMAKDQAVENILLSPLVVASSLGLVSLGGKATTASQAKAVLSAEKLRDEEVHTGLGELLRSLSNSTARNVTWKLGSRLYGPSSVSFADDFVRSSKQHYNCEHSKINFRDKRSALQSINEWASQTTDGKLPEVTKDVERTDGALLVNAMFFKPHWDEKFHHKMVDNRGFMVTRSYTVGVTMMHRTGLYNYYDDEKEKLQMVEMPLAHKLSSLIILMPHHVEPLERLEKLLTKEQLKAWMGKMQKKAVAISLPKGVVEVTHDLQKHLAGLGLTEAIDKNKADLSRMSGKKDLYLASVFHATAFEWDTEGNPFDQDIYGREELRSPKLFYADHPFIFLVRDNQSGSLLFIGRLVRPKGDKMRDEL
B3: KRT10 (protein, UniProt P02535 1-570)
chain: MSVLYSSSSKQFSSSRSGGGGGGGSVRVSSTRGSLGGGYSSGGFSGGSFSRGSSGGGCFGGSSGGYGGFGGGGSFGGGYGGSSFGGGYGGSSFGGGYGGSSFGGAGFGGGGSFGGGSFGGGSYGGGFGGGGFGGDGGSLLSGNGRVTMQNLNDRLASYMDKVRALEESNYELEGKIKEWYEKHGNSSQREPRDYSKYYKTIEDLKGQILTLTTDNANVLLQIDNARLAADDFRLKYENEVTLRQSVEADINGLRRVLDELTLSKSDLEMQIESLNEELAYLKKNHEEEMRDLQNVSTGDVNVEMNAAPGVDLTQLLNNMRNQYEQLAEKNRKDAEEWFNQKSKELTTEIDSNIEQMSSHKSEITELRRTVQGLEIELQSQLALKQSLEASLAETEGRYCVQLSQIQSQISALEEQLQQIRAETECQNAEYQQLLDIKTRLENEIQTYRSLLEGEGSSSGGGGGRRGGSGGGSYGGSSGGGSYGGSSGGGGSYGGSSGGGGSYGGGSSGGGSHGGSSGGGYGGGSSSGGAGGHGGSSGGGYGGGSSSGGQGGSGGFKSSGGGDQSSKGPRY
B4: KRT1 (protein, UniProt P04104 1-637)
chain: MSLQCSSRSLCRGGGGSRNFSSGSAGLVSFQRRSTSSSMRRSGGGGGGRFSGGGFCGSSGSGFGSKSLMNLGGGRSISKSVAGGGGSFCGGFGGGSYGGGGFGGGSYGGGGFGGGSFGGGGFGGSGFGGGLGGGGGFGSGGGFGGGRFGSMGPVCPPGGIQEVTINQSLLQPLNVEVDPQIQKVKSQEREQIKSLNDKFASFIDKVRFLEQQNQVLQTKWELLQQVDTTTRTQNLDPFFENYISILRRKVDSLKSDQSRMDSELKNMQDLVEEYRTKYEDEINKRTNAENEFVTIKKDVDSAYMTKVELQAKADALQQDIDFFSALYQMEMSQMQTQISETNVVLSMDNNRSLDLDGIISEVKAQYDSICQRSKAEAETFYQSKYEELQITAGKHGDSVRNTKMEISELNRMIQRLRSEIDGCKKQISQIQQNINDAEQRGEKALKDAQNKLNEIEDALSQCKEDLARLLRDFQELMNTKLALDMEIATYKKLLEGEEIRMSGECTPNVSVSVSTSHTSMSGSSSRGGGSGGGRYGGGGSYGGGSGGGSYGGSSGGGGSGGSYGGGSGGGSYGGGSGGGSSGSHRGGSGGGGGSSGGSYGGSSGGGRGGSSSGGGGVKSSGSSTVKFVSTSYSRGTK
B5: COCH (protein, UniProt Q62507 27-552)
chain: EGAVPIPVTCFTRGLDIRKEKADVLCPGGCSLEEFSVFGNIVYASVSSICGAAVHRGVIGTSGGPVRVYSLPGRENYSSVDANGIQSQMLSRWSASFAVTKGKSSTQEATGRAVSTAHPPSGKRLKKTPEKKTGNKDCKADIAFLIDGSFNIGQRRFNLQKNFVGKVALMLGIGTEGPHVGLVQASEHPKIEFYLKNFTSAKDVLFAIKEVGFRGGNSNTGKALKHTAQKFFTADTGVRKGIPKVVVVFIDGWPSDDIEEAGIVAREFGVNVFIVSVAKPIPEELGMVQDVAFVDKAVCRNNGFFSYHMPNWFGTTKYVKPLVQKLCTHEQMMCSKTCYNSVNIAFLIDGSSSVGDSNFRLMLEFVSNIAKTFEISDIGAKIAAVQFTYDQRTEFSFTDYNTKENVLAVLANIRYMSGGTATGDAIAFTVRNVFGPIRDSPNKNFLVIVTDGQSYDDVRGPAAAAHDAGITIFSVGVAWAPLDDLRDMASKPKESHAFFTREFTGLEPIVSDVIRGICRDFLESQQ

molecular target: LIM only protein 7 (LMO7) (mouse (endogenous in P6 organ of Corti)); assay: affinity purification with mass spectrometry; Co-IP/MS: endogenous LMO7 precipitated from lysate of forty P6 mouse cochleae with monoclonal LMO7 antibody B-7 overnight at 4 °C, Protein G beads, lysis buffer 50 mM Tris pH 8, 100 mM NaCl, 0.5% NP40, 1 mM EGTA, 1 mM EDTA; beads washed three times; on-bead trypsin digest, LC-MS/MS; equivalent Lmo7 KO tissue as negative control

binding, binds:
B1
B2
B3
B4
B5
